PubChem BioAssay AID652272, Drosophila RNAi Screening Center – 2013

Screen: 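Finding fly genes that regulate Hedgehog signal transduction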 (primary screen)
System: Drosophila clone 8 (Cl8) cells
Reagent: long dsRNA against Drosophila genes
Measured: 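Firefly light from a Hedgehog-responsive ptc promoter reporter and Renilla reference light, both read on a plate reader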
Reading the numbers: firefly Hh reporter signal: higher = more ptc reporter light; Renilla reference signal: higher = more Renilla control light
Call rule: 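Called a hit if the two-replicate mean z-score lies below -2 or above +3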
Meaning of the calls: active = hit: reporter lowered or raised; inactive = not a hit
The deposit covers about 21,000 reagents; below is an unselected part of those that have a named target and a result. In the full data, 503 (2.4%) got an active call. 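Raw plate light values, not normalised; calls rest on replicate z-scores that were not deposited; hits include reporter decreases as well as increases.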 A number with no mark means an inactive call. No sequences are given here. The record does not give: the amount of reagent, the time to read-out.

predicted target | dsRNA | firefly Hh reporter signal, replicate 1 | firefly Hh reporter signal, replicate 2 | firefly Hh reporter signal, replicate 3 | Renilla reference signal, replicate 1 | Renilla reference signal, replicate 2
CG3156 (GeneID 30994) | DRSC18503 | 81318 | 1.02e5 | – | 1573 | 2706
CG31809 (GeneID 318954) | DRSC01561 | 97802 | 2.67e5 | – | 2996 | 11988
Lcp65Ag3 (GeneID 59159) | DRSC10345 | 75146 | 65872 | – | 8390 | 4648
knrl (GeneID 40285) | DRSC11892 | 98285 | 73281 | – | 4553 | 3568
Erk7 (GeneID 31877) | DRSC18127 | 1.25e5 | 2.84e5 | – | 3255 | 10400
Erk7 (GeneID 31877) | DRSC18227 | 93853 | 2.12e5 | – | 2601 | 7990
CG14691 (GeneID 41287) | DRSC14914 | 73849 | 1.04e5 | – | 1370 | 3416
CG10996 (GeneID 32345) | DRSC19363 | 95475 | 1.94e5 | – | 2904 | 7357
lab (GeneID 40817) | DRSC12627 | 64506 | 77124 | – | 2610 | 2289
Atpalpha (GeneID 48971) | DRSC14119 | 1.34e5 | 1.01e5 | – | 5873 | 4348
CG12963 (GeneID 36724) | DRSC05555 | 1.24e5 | 2.94e5 | – | 8992 | 11370
CG12963 (GeneID 36724) | DRSC06265 | 82811 | 39252 | – | 1917 | 1681
U2af50 (GeneID 32602) | DRSC20297 | 1.01e5 | 73574 | – | 1622 | 1105
X11L (GeneID 252671) | DRSC19958 | 1.64e5 | 7.30e5 | 1.45e5 | 4112 | 41680
X11L (GeneID 252671) | DRSC19959 | 76242 | 2.55e5 | – | 1832 | 9133
CG9592 (GeneID 39585) | DRSC11078 | 80311 | – | – | 3701 | 2227
Ada (GeneID 41092) | DRSC14463 | 83753 | 1.58e5 | – | 2616 | 4288
mtgo (GeneID 34987) | DRSC02245 | 2.27e5 | 3.53e5 | 70748 | 5411 | 22544
mtgo (GeneID 34987) | DRSC02246 | 4.30e5 | 6.30e5 | 1.57e5 | 29079 | 3724
mtgo (GeneID 34987) | DRSC02769 | 70717 | 51575 | – | 3712 | 2736
CG31924 (GeneID 319030) | DRSC00689 | 1.16e5 | 99064 | – | 2953 | 2450
CG42322 (GeneID 42455) | DRSC15112 | 1.27e5 | 69559 | – | 5260 | 2896
CG42322 (GeneID 42455) | DRSC15113 | 6.06e5 | 1.33e5 | – | 36353 | 9476
CG42322 (GeneID 42455) | DRSC15114 | 4.33e5 | 33991 | – | 24717 | 2660

Entries above whose target name begins with E or e (2):
predicted target | dsRNA | firefly Hh reporter signal, replicate 1 | firefly Hh reporter signal, replicate 2 | firefly Hh reporter signal, replicate 3 | Renilla reference signal, replicate 1 | Renilla reference signal, replicate 2
Erk7 (GeneID 31877) | DRSC18127 | 1.25e5 | 2.84e5 | – | 3255 | 10400
Erk7 (GeneID 31877) | DRSC18227 | 93853 | 2.12e5 | – | 2601 | 7990
